Reference: article PMC10570362
Results are given in words; binding and its absence hold for the method and conditions named. Binding seen in cells or lysates may run through a third protein. Here binding means that the protein was enriched with, or labelled near, the bait; the list need not be complete.

Chains of the proteins cited; added tags and fusions are not shown.
UniProt Q5PSV9: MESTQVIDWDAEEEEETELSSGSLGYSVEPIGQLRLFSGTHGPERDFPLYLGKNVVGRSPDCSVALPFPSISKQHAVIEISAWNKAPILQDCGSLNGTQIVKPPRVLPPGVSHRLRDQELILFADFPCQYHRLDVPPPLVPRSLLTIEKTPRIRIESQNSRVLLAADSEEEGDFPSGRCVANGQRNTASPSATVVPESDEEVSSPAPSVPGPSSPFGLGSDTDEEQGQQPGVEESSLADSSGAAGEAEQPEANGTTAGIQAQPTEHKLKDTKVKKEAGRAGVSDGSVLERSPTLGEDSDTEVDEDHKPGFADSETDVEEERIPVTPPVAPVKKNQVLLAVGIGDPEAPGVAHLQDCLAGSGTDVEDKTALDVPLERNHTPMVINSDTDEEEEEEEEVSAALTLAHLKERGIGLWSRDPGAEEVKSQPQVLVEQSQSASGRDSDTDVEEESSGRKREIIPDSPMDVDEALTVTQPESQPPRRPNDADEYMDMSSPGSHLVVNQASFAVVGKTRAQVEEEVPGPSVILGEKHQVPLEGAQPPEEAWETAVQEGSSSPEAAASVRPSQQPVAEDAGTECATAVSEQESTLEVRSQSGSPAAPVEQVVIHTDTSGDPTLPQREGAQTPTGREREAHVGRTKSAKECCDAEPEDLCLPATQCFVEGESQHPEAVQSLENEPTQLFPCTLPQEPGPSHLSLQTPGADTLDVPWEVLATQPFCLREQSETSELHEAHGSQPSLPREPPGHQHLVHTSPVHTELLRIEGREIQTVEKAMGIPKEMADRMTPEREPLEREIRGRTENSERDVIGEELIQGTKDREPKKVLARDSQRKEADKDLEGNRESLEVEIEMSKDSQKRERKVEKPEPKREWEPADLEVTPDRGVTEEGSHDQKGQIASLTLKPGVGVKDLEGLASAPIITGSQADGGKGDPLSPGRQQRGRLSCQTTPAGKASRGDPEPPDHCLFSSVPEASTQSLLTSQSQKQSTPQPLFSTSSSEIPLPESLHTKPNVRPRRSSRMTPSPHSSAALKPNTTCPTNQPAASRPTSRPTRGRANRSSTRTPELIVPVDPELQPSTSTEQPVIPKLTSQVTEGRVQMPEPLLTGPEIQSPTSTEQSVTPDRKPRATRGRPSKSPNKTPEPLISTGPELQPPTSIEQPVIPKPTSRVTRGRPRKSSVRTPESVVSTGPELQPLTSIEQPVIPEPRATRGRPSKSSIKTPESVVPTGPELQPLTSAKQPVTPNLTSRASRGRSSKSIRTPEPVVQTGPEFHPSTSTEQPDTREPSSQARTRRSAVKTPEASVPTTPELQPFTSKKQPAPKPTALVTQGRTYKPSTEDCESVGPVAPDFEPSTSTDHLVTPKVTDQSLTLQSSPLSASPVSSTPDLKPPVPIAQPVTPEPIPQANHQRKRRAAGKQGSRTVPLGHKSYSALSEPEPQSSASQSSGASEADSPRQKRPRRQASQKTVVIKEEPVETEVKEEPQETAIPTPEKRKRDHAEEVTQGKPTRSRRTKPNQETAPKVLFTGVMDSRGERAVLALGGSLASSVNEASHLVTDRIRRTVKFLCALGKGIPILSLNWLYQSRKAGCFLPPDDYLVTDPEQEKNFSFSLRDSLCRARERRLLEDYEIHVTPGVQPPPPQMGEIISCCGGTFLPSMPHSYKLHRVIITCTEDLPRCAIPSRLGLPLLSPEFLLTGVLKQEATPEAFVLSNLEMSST

Key:
[1] = molecular target: T1, High-mobility group AT-hook protein 2 (HMGA2), endogenous, mouse (mouse (endogenous in E11.5 neocortex)) (UniProt P52927); test: affinity purification with mass spectrometry; endogenous HMGA2 precipitated with antibodies to HMGA2 (Cell Signaling #8179) cross-linked to protein A-Dynabeads from the solubilised chromatin fraction (400 mM KCl buffer) of E11.5 mouse neocortex cells, 4 °C; control rabbit IgG
T1 sequence: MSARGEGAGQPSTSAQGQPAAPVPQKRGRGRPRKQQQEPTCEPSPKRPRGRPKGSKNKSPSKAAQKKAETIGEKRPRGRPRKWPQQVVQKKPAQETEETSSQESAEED

[2] = molecular target: T2, mouse HMGA2 overexpressed in Neuro2A cells (mouse) (UniProt P52927); test: affinity purification with mass spectrometry; IP-MS of HMGA2 from the chromatin fraction of Neuro2A cells overexpressing mouse HMGA2, collected 1 day after transfection
T2 sequence: T1 sequence

binding [1]: binds
binding [2]: binds
Substance: mediator of DNA damage checkpoint protein 1 (MDC1), mouse, endogenous (from UniProt Q5PSV9 1-1707)
